Data from PMC7334207.

By UniProt entry, the sequences of proteins in these tests, tags left out. Residues count along the entry.
UniProt Q8WYQ5, 285-478: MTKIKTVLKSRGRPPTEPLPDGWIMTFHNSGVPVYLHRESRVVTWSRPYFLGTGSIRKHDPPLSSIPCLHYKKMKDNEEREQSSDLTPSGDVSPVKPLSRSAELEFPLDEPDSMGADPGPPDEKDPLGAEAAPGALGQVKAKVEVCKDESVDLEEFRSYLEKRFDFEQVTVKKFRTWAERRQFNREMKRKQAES
UniProt Q8WYQ5, 285-750 W461A/A462G/E463Q: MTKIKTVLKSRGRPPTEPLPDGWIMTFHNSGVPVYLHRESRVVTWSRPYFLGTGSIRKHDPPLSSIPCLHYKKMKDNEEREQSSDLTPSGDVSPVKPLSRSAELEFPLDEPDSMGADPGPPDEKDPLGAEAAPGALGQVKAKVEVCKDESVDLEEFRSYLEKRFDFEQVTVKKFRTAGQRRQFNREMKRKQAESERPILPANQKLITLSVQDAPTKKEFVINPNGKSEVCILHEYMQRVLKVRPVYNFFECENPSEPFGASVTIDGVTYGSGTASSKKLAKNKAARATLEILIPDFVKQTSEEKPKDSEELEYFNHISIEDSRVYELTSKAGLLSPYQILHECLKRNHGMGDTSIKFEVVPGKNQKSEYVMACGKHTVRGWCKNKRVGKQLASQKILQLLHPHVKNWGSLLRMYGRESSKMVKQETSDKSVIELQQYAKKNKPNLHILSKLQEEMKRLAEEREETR
UniProt Q8WYQ5, 285-750: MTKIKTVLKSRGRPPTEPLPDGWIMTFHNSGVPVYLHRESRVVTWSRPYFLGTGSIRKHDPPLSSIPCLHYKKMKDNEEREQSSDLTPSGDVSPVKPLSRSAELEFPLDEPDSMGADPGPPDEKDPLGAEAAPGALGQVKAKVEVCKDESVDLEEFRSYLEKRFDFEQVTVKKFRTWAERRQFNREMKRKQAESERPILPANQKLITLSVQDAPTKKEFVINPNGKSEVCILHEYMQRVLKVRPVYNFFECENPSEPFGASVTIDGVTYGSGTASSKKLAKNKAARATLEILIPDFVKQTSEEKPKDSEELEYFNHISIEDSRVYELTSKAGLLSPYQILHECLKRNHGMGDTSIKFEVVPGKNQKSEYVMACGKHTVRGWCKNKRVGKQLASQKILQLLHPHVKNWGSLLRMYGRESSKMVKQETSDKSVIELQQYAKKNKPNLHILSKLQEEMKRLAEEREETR

Legend:
Assay in all cases: EMSA
[1] = tested on: G4 WT-mut1 hybrid dimer W461A,A462G,E463Q (Homo sapiens); settings: 1-2.5 uM protein, similar to WT-WT; 50 mM Tris-HCl pH 7.5, 250 mM NaCl, 10% glycerol, 0.2 mg/ml BSA, 1 mM DTT, 2 mM EDTA; 1 uM RNA in 10 uL; on ice 60 min; 4% native PAGE at 4 C, ethidium bromide stain; recombinant protein; probe letters rebuilt from the primers and the genome
[2] = target: G478 (Rhed) (Homo sapiens) (UniProt Q8WYQ5); settings: 50 mM Tris-HCl pH 7.5, 250 mM NaCl, 10% glycerol, 0.2 mg/ml BSA, 1 mM DTT, 2 mM EDTA; 1 uM RNA in 10 uL; on ice 60 min; 4% native PAGE at 4 C, ethidium bromide stain; recombinant protein; residues 285-478; probe letters rebuilt from the primers and the genome
[3] = target: G4 mut1-mut1 W461A,A462G,E463Q (Homo sapiens) (UniProt Q8WYQ5); settings: 1-2.5 uM protein; 50 mM Tris-HCl pH 7.5, 250 mM NaCl, 10% glycerol, 0.2 mg/ml BSA, 1 mM DTT, 2 mM EDTA; 1 uM RNA in 10 uL; on ice 60 min; 4% native PAGE at 4 C, ethidium bromide stain; recombinant protein; residues 285-750; protein details: N-terminal GFP and 10xHis (as G4); probe letters rebuilt from the primers and the genome
G4 WT-WT (Homo sapiens) = G4 WT-WT (Homo sapiens) (UniProt Q8WYQ5); settings: 0-2.5 uM protein; 50 mM Tris-HCl pH 7.5, 250 mM NaCl, 10% glycerol, 0.2 mg/ml BSA, 1 mM DTT, 2 mM EDTA; 1 uM RNA in 10 uL; on ice 60 min; 4% native PAGE at 4 C, ethidium bromide stain; recombinant protein; residues 285-750; protein details: N-terminal GFP and 10xHis; probe letters rebuilt from the primers and the genome

GGGUAUUGCUGUUGACAGUGAGCGACUGUAAACAUCCUCGACUGGAAGCUGUGAAGCCACAGAUGGGCUUUCAGUCGGAUGUUUGCAGCUGCCUACUGCCUCGGACUUCA [pri-mir-30a_UGU (WT)]
binding result [1]: binds | binding result [2]: binds | binding result [3]: binds more weakly | binding result (G4 WT-WT (Homo sapiens)): binds

Construct, isoform or probe ends are uncertain for at least one entry. For some of these results: Weaker means in comparison with the reference protein, sequence or condition of that experiment.
